This is an account of results in US5780242A, “Bioassay for the screening of ION channel active molecules” (priority 1995, dated 1998).

“Also recorded” adds a separate entry of the source. Counter-ions that a name gives are not always drawn.

The experiment has as its system AChE preparation (sodium channel neuroreceptor). The experiment in a line: Circular dichroism bioassay at 222 nm: temperature-dependent helix-coil transition of the AChE/neuroreceptor preparation in presence of drug. The experiment is classed as binding, bovine. The conditions noted are these: hydrochloride monohydrate. On the procedure:
A baseline of the solution is obtained using 222 nm without removing the cell after a run is begun to allow for thermal stabilization. Prior to adding the drug to the enzyme, a blank run consisting only of the drug at the same concentration used in the enzyme study is made. To obtain control data, temperature changes of 5 degrees centigrade in the neuroreceptor solution alone are made using a Forma water bath. Then the drug is added to a sample of the purified neuroreceptor solution, and the stabilizing effect of the drug on the temperature-related conformational changes is noted. All temperature runs are allowed to equilibrate for one hour before data is collected. Macromolecular samples for control and drug interaction have the same alpha helix content prior to drug addition. […]
All studies are made in 1 mm, 5 mm and 2 mm cells using a Jouan Dichrograph II at 1×10^-5 O.D./mm sensitivity. […] Protein concentration is determined empirically and then measured by the Lowry method after the run. […]
The routine consists of beginning a CD spectral scan followed by running each activity blank at that temperature using 3 minute reading intervals. […] The data recorded consists of duplicates of CD spectra with cell temperatures varying 5 degrees centigrade at 222 nm. […]
Background: CD spectra are sensitive to the conformation of chiral molecules.

As for `CCN(CC)CC(=O)Nc1c(C)cccc1C` [Lidocaine, Lidocaine hydrochloride monohydrate], the “stabilization of helix in preparations not freshly prepared” value (enzyme preparations more than one week old / not freshly prepared) was “not observed; also recorded: will not be protected”. For the same compound, where the note is “fresh preparations, 222 nm, pH 7.0”, the “stabilization of the alpha helix / prevention of the helical transition between 30° C. and 35° C.” value is “appear to stabilize the helix; also recorded: prevent the helical transition; also recorded: prevented this partial uncoiling of the alpha-helix; also recorded: successfully stabilizes the coiled alpha helix”.
